Experimental data: EP1789452B1, “RELAXIN-CHIMERIC POLYPEPTIDES AND THEIR PREPARATION AND USE” (Janssen Pharmaceutica NV, priority 2004, dated 2006)
No constants are given. Whether binding was seen depends on the method and setting. Some binding calls cover weakened binding; strength is not graded here.

Sequences of proteins named here, by UniProt entry; tags and fusion partners are left off. A change or cut given only in a name is not applied to a line headed by its entry.
UniProt Q8WXD0: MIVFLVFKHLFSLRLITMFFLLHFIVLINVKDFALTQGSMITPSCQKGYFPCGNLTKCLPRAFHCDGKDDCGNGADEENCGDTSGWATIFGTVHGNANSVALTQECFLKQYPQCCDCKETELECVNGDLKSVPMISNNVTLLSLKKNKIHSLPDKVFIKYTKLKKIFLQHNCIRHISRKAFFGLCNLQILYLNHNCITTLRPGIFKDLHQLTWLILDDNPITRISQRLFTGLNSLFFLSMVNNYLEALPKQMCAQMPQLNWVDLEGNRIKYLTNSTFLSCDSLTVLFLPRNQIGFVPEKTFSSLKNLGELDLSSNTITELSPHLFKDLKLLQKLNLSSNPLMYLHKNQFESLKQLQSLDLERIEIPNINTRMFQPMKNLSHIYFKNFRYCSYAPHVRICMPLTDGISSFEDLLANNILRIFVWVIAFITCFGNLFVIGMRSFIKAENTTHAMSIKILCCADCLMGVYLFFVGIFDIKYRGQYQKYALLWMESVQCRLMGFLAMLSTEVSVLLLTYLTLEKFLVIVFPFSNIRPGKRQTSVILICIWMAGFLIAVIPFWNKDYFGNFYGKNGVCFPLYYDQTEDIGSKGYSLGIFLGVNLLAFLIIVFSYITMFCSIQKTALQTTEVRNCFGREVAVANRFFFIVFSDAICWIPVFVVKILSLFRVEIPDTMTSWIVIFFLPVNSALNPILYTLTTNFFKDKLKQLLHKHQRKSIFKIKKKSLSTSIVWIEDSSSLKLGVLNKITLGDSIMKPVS
UniProt P04808: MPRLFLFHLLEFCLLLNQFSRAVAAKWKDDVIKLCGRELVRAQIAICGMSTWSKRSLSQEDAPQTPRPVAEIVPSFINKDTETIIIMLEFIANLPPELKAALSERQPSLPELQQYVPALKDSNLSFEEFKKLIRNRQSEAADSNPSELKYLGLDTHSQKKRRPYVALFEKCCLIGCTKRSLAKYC

Key:
human LGR7 (human) [1] = biological target: T1, human LGR7 (human) (UniProt Q9HBX9); assay: radioligand competition, human LGR7
T1 sequence (looked up): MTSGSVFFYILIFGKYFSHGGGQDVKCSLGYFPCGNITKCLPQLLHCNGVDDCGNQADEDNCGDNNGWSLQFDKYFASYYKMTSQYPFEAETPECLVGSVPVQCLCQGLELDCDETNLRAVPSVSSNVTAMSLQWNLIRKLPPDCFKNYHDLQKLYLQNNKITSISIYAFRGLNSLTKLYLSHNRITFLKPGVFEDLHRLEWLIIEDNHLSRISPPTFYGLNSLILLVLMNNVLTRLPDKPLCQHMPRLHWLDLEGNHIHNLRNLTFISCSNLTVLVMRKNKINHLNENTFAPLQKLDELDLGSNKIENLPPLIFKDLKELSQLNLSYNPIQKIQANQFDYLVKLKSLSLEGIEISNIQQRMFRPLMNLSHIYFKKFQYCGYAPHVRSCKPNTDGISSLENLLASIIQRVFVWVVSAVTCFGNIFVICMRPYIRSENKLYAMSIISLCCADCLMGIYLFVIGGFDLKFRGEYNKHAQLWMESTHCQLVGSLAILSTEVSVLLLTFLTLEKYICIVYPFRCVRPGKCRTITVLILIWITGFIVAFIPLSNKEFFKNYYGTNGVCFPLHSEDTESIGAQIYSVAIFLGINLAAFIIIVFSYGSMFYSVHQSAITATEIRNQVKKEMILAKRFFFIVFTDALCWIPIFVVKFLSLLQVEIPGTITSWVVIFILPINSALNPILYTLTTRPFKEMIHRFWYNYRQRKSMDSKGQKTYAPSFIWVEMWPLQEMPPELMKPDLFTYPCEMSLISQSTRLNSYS

human LGR8 (human) [2] = biological target: human LGR8 (human) (UniProt Q8WXD0); assay: radioligand competition with [125I]-INSL3, human LGR8
human LGR7 (human) [3] = biological target: T1, human LGR7 (human); assay: discussion of radioligand binding and functional assays
human LGR8 (human) [4] = biological target: human LGR8 (human) (UniProt Q8WXD0); assay: as above

Measured: binding

Relaxin-3/Relaxin-1 (R3/R1) chimeric polypeptide (from UniProt P04808 162-185) (ligand)
binds: all assays above
